# Reference: the supplement of paper PMC8728848
# Some of the results follow.
# What was measured:
# Assay in all cases: glycan array binding signal (z-score within array); higher = stronger binding
# Conditions in all cases: glycan notation: IUPAC condensed, linker removed
# Fuc(a1-2)Gal = target: Fuc(a1-2)Gal
# Method in brief: (§1)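 From the Consortium for Functional Glycomics database, 3228 arrays were curated, keeping only those whose protein sequence was available. Binding is given as a within-array Z-score averaged across arrays sharing a protein sequence and across linkers. Negative Z-scores can be read as non-binding.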
# Fuc(a1-2)Gal(b1-3)GalNAc = target: Fuc(a1-2)Gal(b1-3)GalNAc
# Method in brief: as §1
# [1] = target: Fuc(a1-2)Gal(b1-3)GalNAc(a1-3)[Fuc(a1-2)]Gal(b1-4)Glc
# Method in brief: as §1
# [2] = target: Fuc(a1-2)Gal(b1-3)GalNAc(a1-3)[Fuc(a1-2)]Gal(b1-4)GlcNAc
# Method in brief: as §1
# [3] = target: Fuc(a1-2)Gal(b1-3)GalNAc(b1-3)Gal
# Method in brief: as §1
# [4] = target: Fuc(a1-2)Gal(b1-3)GalNAc(b1-3)Gal(a1-4)Gal(b1-4)Glc
# Method in brief: as §1
# [5] = target: Fuc(a1-2)Gal(b1-3)GalNAc(b1-4)[Neu5Ac(a2-3)]Gal(b1-4)Glc
# Method in brief: as §1
# Fuc(a1-2)Gal(b1-3)GlcNAc = target: Fuc(a1-2)Gal(b1-3)GlcNAc
# Method in brief: as §1
# [6] = target: Fuc(a1-2)Gal(b1-3)GlcNAc(b1-2)Man(a1-3)[Fuc(a1-2)Gal(b1-3)GlcNAc(b1-2)Man(a1-6)]Man(b1-4)GlcNAc(b1-4)GlcNAc
# Method in brief: as §1
# [7] = target: Fuc(a1-2)Gal(b1-3)GlcNAc(b1-2)Man(a1-3)[Fuc(a1-2)Gal(b1-3)GlcNAc(b1-2)Man(a1-6)]Man(b1-4)GlcNAc(b1-4)[Fuc(a1-6)]GlcNAc
# Method in brief: as §1
# [8] = target: Fuc(a1-2)Gal(b1-3)GlcNAc(b1-3)Gal(b1-4)Glc
# Method in brief: as §1
# [9] = target: Fuc(a1-2)Gal(b1-3)GlcNAc(b1-3)GalNAc
# Method in brief: as §1
# [10] = target: Fuc(a1-2)Gal(b1-3)GlcNAc(b1-3)[Fuc(a1-2)Gal(b1-3)GlcNAc(b1-6)]GalNAc
# Method in brief: as §1
# [11] = target: Fuc(a1-2)Gal(b1-3)GlcNAc(b1-3)[Gal(b1-4)GlcNAc(b1-6)]Gal(b1-4)Glc
# Method in brief: as §1
# [12] = target: Fuc(a1-2)Gal(b1-3)GlcNAc(b1-3)[Neu5Ac(a2-6)Gal(b1-4)GlcNAc(b1-6)]Gal(b1-4)Glc
# Method in brief: as §1
# [13] = target: Fuc(a1-2)Gal(b1-3)GlcNAc6S
# Method in brief: as §1
# [14] = target: Fuc(a1-2)Gal(b1-3)[Fuc(a1-4)]GlcNAc
# Method in brief: as §1
# [15] = target: Fuc(a1-2)Gal(b1-3)[Fuc(a1-4)]GlcNAc(b1-2)Man(a1-3)[Fuc(a1-2)Gal(b1-3)[Fuc(a1-4)]GlcNAc(b1-2)Man(a1-3)]Man(b1-4)GlcNAc(b1-4)GlcNAc
# Method in brief: as §1
# [16] = target: Fuc(a1-2)Gal(b1-3)[Fuc(a1-4)]GlcNAc(b1-2)Man(a1-3)[Fuc(a1-2)Gal(b1-3)[Fuc(a1-4)]GlcNAc(b1-2)Man(a1-6)]Man(b1-4)GlcNAc(b1-4)[Fuc(a1-6)]GlcNAc(b1-4)[Fuc(a1-6)]GlcNAc
# Method in brief: as §1
# [17] = target: Fuc(a1-2)Gal(b1-3)[Fuc(a1-4)]GlcNAc(b1-3)[Fuc(a1-3)[Gal(b1-4)]GlcNAc(b1-6)]Gal(b1-4)Glc
# Method in brief: as §1
# [18] = target: Fuc(a1-2)Gal(b1-3)[Fuc(a1-4)]GlcNAc(b1-3)[Gal(b1-4)GlcNAc(b1-6)]Gal(b1-4)Glc
# Method in brief: as §1
# Fuc(a1-2)Gal(b1-4)Glc6S = target: Fuc(a1-2)Gal(b1-4)Glc6S
# Method in brief: as §1
# Fuc(a1-2)Gal(b1-4)GlcNAc = target: Fuc(a1-2)Gal(b1-4)GlcNAc
# Method in brief: as §1
# [19] = target: Fuc(a1-2)Gal(b1-4)GlcNAc(b1-2)Man
# Method in brief: as §1
# [20] = target: Fuc(a1-2)Gal(b1-4)GlcNAc(b1-2)Man(a1-3)[Fuc(a1-2)Gal(b1-4)GlcNAc(b1-2)Man(a1-6)]Man(b1-4)GlcNAc(b1-4)GlcNAc
# Method in brief: as §1
# [21] = target: Fuc(a1-2)Gal(b1-4)GlcNAc(b1-2)Man(a1-3)[Fuc(a1-2)Gal(b1-4)GlcNAc(b1-2)Man(a1-6)]Man(b1-4)GlcNAc(b1-4)[Fuc(a1-6)]GlcNAc
# Method in brief: as §1
# [22] = target: Fuc(a1-2)Gal(b1-4)GlcNAc(b1-2)[Fuc(a1-2)Gal(b1-4)GlcNAc(b1-4)]Man(a1-3)[Fuc(a1-2)Gal(b1-4)GlcNAc(b1-2)Man(a1-6)]Man(b1-4)GlcNAc(b1-4)GlcNAc
# Method in brief: as §1
# [23] = target: Fuc(a1-2)Gal(b1-4)GlcNAc(b1-3)Gal(b1-4)GlcNAc
# Method in brief: as §1
# [24] = target: Fuc(a1-2)Gal(b1-4)GlcNAc(b1-3)Gal(b1-4)GlcNAc(b1-2)Man(a1-3)[Fuc(a1-2)Gal(b1-4)GlcNAc(b1-3)Gal(b1-4)GlcNAc(b1-2)Man(a1-6)]Man(b1-4)GlcNAc(b1-4)GlcNAc
# Method in brief: as §1
# [25] = target: Fuc(a1-2)Gal(b1-4)GlcNAc(b1-3)Gal(b1-4)GlcNAc(b1-3)Gal(b1-4)GlcNAc
# Method in brief: as §1
# [26] = target: Fuc(a1-2)Gal(b1-4)GlcNAc(b1-3)GalNAc
# Method in brief: as §1
# [27] = target: Fuc(a1-2)Gal(b1-4)GlcNAc(b1-3)[Fuc(a1-2)Gal(b1-4)GlcNAc(b1-6)]GalNAc
# Method in brief: as §1
# [28] = target: Fuc(a1-2)Gal(b1-4)GlcNAc(b1-3)[Fuc(a1-3)[Gal(b1-4)]GlcNAc(b1-6)]Gal(b1-4)Glc
# Method in brief: as §1
# [29] = target: Fuc(a1-2)Gal(b1-4)GlcNAc(b1-6)GalNAc
# Method in brief: as §1
# [30] = target: Fuc(a1-2)Gal(b1-4)GlcNAc6S
# Method in brief: as §1
# [31] = target: Fuc(a1-2)Gal(b1-4)[Fuc(a1-3)]GlcNAc
# Method in brief: as §1
# [32] = target: Fuc(a1-2)Gal(b1-4)[Fuc(a1-3)]GlcNAc(b1-2)Man(a1-3)[Fuc(a1-2)Gal(b1-4)[Fuc(a1-3)]GlcNAc(b1-2)Man(a1-6)]Man(b1-4)GlcNAc(b1-4)[Fuc(a1-6)]GlcNAc
# Method in brief: as §1
# [33] = target: Fuc(a1-2)Gal(b1-4)[Fuc(a1-3)]GlcNAc(b1-2)[Fuc(a1-2)Gal(b1-4)[Fuc(a1-3)]GlcNAc(b1-4)]Man(a1-3)[Fuc(a1-2)Gal(b1-4)[Fuc(a1-3)]GlcNAc(b1-2)Man(a1-6)]Man(b1-4)GlcNAc(b1-4)GlcNAc
# Method in brief: as §1
# [34] = target: Fuc(a1-2)Gal(b1-4)[Fuc(a1-3)]GlcNAc(b1-3)Gal(b1-4)[Fuc(a1-3)]GlcNAc
# Method in brief: as §1
# [35] = target: Fuc(a1-2)Gal(b1-4)[Fuc(a1-3)]GlcNAc(b1-3)Gal(b1-4)[Fuc(a1-3)]GlcNAc(b1-3)Gal(b1-4)[Fuc(a1-3)]GlcNAc
# Method in brief: as §1
# [36] = target: Fuc(a1-2)Gal(b1-4)[Fuc(a1-3)]GlcNAc(b1-3)GalNAc
# Method in brief: as §1
# [37] = target: Fuc(a1-2)Gal3S(b1-4)GlcNAc
# Method in brief: as §1
# [38] = target: Fuc(a1-2)Gal6S(b1-3)GlcNAc
# Method in brief: as §1
# [39] = target: Fuc(a1-2)Gal6S(b1-3)GlcNAc6S
# Method in brief: as §1
# Fuc(a1-2)Gal6S(b1-4)Glc = target: Fuc(a1-2)Gal6S(b1-4)Glc
# Method in brief: as §1
binder,measurement,setting,value
PX14351B-bth-512-36-512 (Bacteroides thetaiotaomicron) (protein) ASETQQWKTLEDTRSALMGVYGLTRAALADNNTHWICGDLRKGDFTVYKRSDLQAVSDNELNKPYDLLKKVSNWRRFYAVINAASVFMEKAPRTVELDRSYSEQNLKYDIAQVRALRAFAYFYMVRIWGDVPLVTYSYDNGTFPSMPRTDAQTVLSYAKAELLTAIEDLPYQYGTQTNLYYGSYGAQWQGKLFNKLSAYSVLAHICAWQGNYAEAETYSAFIIDHASEINAKYTSIADLTSETGLFYSNASVKGSRILGFNFAHNDNEATQSGHLEQLTLAYPLVQKSYPEIYISKDSLFSIFTNFDDLRFGIIDTIKYSSYYVQNLNEETPVFSKIKIIQDGSAKDNDFGVFGSSIVFTRLEDITLLRAEALCALNRSTEAVSYLNMIRTNRGLREVSFKKDFGNNRESLIAEIFEERRRELMGEGWRWYDLVRRQKLMKDNEAFLRLISSGGIYWPVSEDIITANSQIEQNEFWK,glycan array binding signal (z-score),Fuc(a1-2)Gal,-0.213
same,glycan array binding signal (z-score),Fuc(a1-2)Gal(b1-3)GalNAc,-0.196
same,glycan array binding signal (z-score),[1],-0.105
same,glycan array binding signal (z-score),[2],-0.211
same,glycan array binding signal (z-score),[3],-0.333
same,glycan array binding signal (z-score),[4],-0.283
same,glycan array binding signal (z-score),[5],-0.23
same,glycan array binding signal (z-score),Fuc(a1-2)Gal(b1-3)GlcNAc,-0.181
same,glycan array binding signal (z-score),[6],0.253
same,glycan array binding signal (z-score),[7],-0.176
same,glycan array binding signal (z-score),[8],-0.331
same,glycan array binding signal (z-score),[9],-0.124
same,glycan array binding signal (z-score),[10],-0.137
same,glycan array binding signal (z-score),[11],-0.26
same,glycan array binding signal (z-score),[12],-0.082
same,glycan array binding signal (z-score),[13],0.101
same,glycan array binding signal (z-score),[14],-0.358
same,glycan array binding signal (z-score),[15],0.478
same,glycan array binding signal (z-score),[16],-0.147
same,glycan array binding signal (z-score),[17],-0.359
same,glycan array binding signal (z-score),[18],0.018
same,glycan array binding signal (z-score),Fuc(a1-2)Gal(b1-4)Glc6S,0.658
same,glycan array binding signal (z-score),Fuc(a1-2)Gal(b1-4)GlcNAc,-0.311
same,glycan array binding signal (z-score),[19],-0.373
same,glycan array binding signal (z-score),[20],-0.081
same,glycan array binding signal (z-score),[21],-0.264
same,glycan array binding signal (z-score),[22],-0.061
same,glycan array binding signal (z-score),[23],-0.208
same,glycan array binding signal (z-score),[24],-0.146
same,glycan array binding signal (z-score),[25],-0.311
same,glycan array binding signal (z-score),[26],-0.327
same,glycan array binding signal (z-score),[27],-0.225
same,glycan array binding signal (z-score),[28],-0.327
same,glycan array binding signal (z-score),[29],-0.308
same,glycan array binding signal (z-score),[30],-0.286
same,glycan array binding signal (z-score),[31],-0.185
same,glycan array binding signal (z-score),[32],-0.138
same,glycan array binding signal (z-score),[33],-0.158
same,glycan array binding signal (z-score),[34],-0.277
same,glycan array binding signal (z-score),[35],-0.24
same,glycan array binding signal (z-score),[36],0.881
same,glycan array binding signal (z-score),[37],-0.247
same,glycan array binding signal (z-score),[38],-0.119
same,glycan array binding signal (z-score),[39],-0.199
same,glycan array binding signal (z-score),Fuc(a1-2)Gal6S(b1-4)Glc,0.03

# 2 entries from above, with tabs:
binder	measurement	setting	value
PX14351B-bth-512-36-512 (Bacteroides thetaiotaomicron) (protein) ASETQQWKTLEDTRSALMGVYGLTRAALADNNTHWICGDLRKGDFTVYKRSDLQAVSDNELNKPYDLLKKVSNWRRFYAVINAASVFMEKAPRTVELDRSYSEQNLKYDIAQVRALRAFAYFYMVRIWGDVPLVTYSYDNGTFPSMPRTDAQTVLSYAKAELLTAIEDLPYQYGTQTNLYYGSYGAQWQGKLFNKLSAYSVLAHICAWQGNYAEAETYSAFIIDHASEINAKYTSIADLTSETGLFYSNASVKGSRILGFNFAHNDNEATQSGHLEQLTLAYPLVQKSYPEIYISKDSLFSIFTNFDDLRFGIIDTIKYSSYYVQNLNEETPVFSKIKIIQDGSAKDNDFGVFGSSIVFTRLEDITLLRAEALCALNRSTEAVSYLNMIRTNRGLREVSFKKDFGNNRESLIAEIFEERRRELMGEGWRWYDLVRRQKLMKDNEAFLRLISSGGIYWPVSEDIITANSQIEQNEFWK	glycan array binding signal (z-score)	[20]	-0.081
same	glycan array binding signal (z-score)	[21]	-0.264
